Results of single-concentration screens

Source: ChEMBL document CHEMBL3988442, “University of Dundee, Small-Polar-MMV Screening Library” (2021).

Values are the deposited “Percent Effect”, in %. The controls that fix the scale are not given in the record; negative values are as filed. Compounds were drawn at random from those tested, without regard to their results. Two or more numbers in one place are separate tests of the same structure; such repeats can differ widely.

Mtb glucose medium: 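Whole-cell growth test on Mycobacterium tuberculosis, read after 3 days in glucose-containing 7H9 medium; the read-out is not stated. Concentration: 50 µM. Higher reads as more growth inhibition (inferred: compounds with an IC50 in retests scored well above the rest). Size under these conditions: about 69,000 compounds, about 760 of them at 50% or above in at least one test.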
Mtb cholesterol medium: 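Phenotypic screen: M. tuberculosis growth, cholesterol and DPPC medium, 4 days; the read-out is not stated. Tested at 50 µM. Higher reads as more growth inhibition (inferred: compounds with an IC50 in retests scored well above the rest). Size under these conditions: about 69,000 compounds, about 370 of them at 50% or above in at least one test.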

With CCOC(C)c1noc(CN2CCN(Cc3ccno3)CC2)n1 (centres undefined) the screen gave Mtb glucose medium: -3.026%; Mtb cholesterol medium: 3.231%.
With COc1c(C(=O)N2CCC(COCc3ccccc3)C2)c(C)nn1C (centres undefined) the screen gave Mtb glucose medium: 12.71%; Mtb cholesterol medium: 7.338%.
With O=C(c1ccncn1)N1CCC[C@]2(C[C@H](OCC3CC3)CO2)C1 the screen gave Mtb glucose medium: 27.43%; Mtb cholesterol medium: 11.7% and 1.845%.
With NC(=O)CSCCC(=O)N1CCCC1c1ccsc1 (centres undefined) the screen gave Mtb glucose medium: -3.242% and 25.14%; Mtb cholesterol medium: 3.658%.
With O=c1oc(-c2ccc(F)cc2)nn1CN1CCSCC1 the screen gave Mtb glucose medium: 5.238%; Mtb cholesterol medium: 15.32%.
With CC(C)NC(=O)CCN1CCCC1c1cccc2c1OCCO2 (centres undefined) the screen gave Mtb glucose medium: 30.42%; Mtb cholesterol medium: -5.581% and 7.672%.
With Cl.NC1CCc2nc(-c3cccnc3)nc(Nc3ccc(F)cc3)c2C1 (centres undefined) the screen gave Mtb glucose medium: 77.6%; Mtb cholesterol medium: 55.67% and 72.2%.
With Cc1ccc(N2CCCN(C(=O)C3(C#N)CCCCC3)CC2)nn1 the screen gave Mtb glucose medium: 12.81%; Mtb cholesterol medium: -2.68%.
With Cc1nn(C)c(N(C)C)c1CNCc1cccc(OCCN(C)C)c1 the screen gave Mtb glucose medium: -39.16%; Mtb cholesterol medium: -27.69%.
With CSCC(C)(O)CNc1cccc(F)c1C(C)=O (centres undefined) the screen gave Mtb glucose medium: -28.05%; Mtb cholesterol medium: -5.49%.
With Cc1cc(C)c2nc(CN3C[C@H](CCO)[C@@H](N)C3)cc(O)c2c1 the screen gave Mtb glucose medium: -21.91%; Mtb cholesterol medium: -18.94%.
With CN1CCC(C)(CNC(=O)c2ccc(SCc3cccnc3)cc2)CC1 the screen gave Mtb glucose medium: 1.256% and -26.31%; Mtb cholesterol medium: 2.5%.
With CCN1CCN(S(=O)(=O)c2ccc(Cc3cc(C)n[nH]c3=O)cc2)CC1 the screen gave Mtb glucose medium: 0.2485%; Mtb cholesterol medium: -1.145%.
With CCCNC(=O)c1sc(Nc2ccc(Cl)cn2)nc1C the screen gave Mtb glucose medium: 10.25%; Mtb cholesterol medium: -10.14%.
With Cc1noc(-c2ccc(N(C)Cc3nccs3)nc2)n1 the screen gave Mtb glucose medium: 0.2729% and 25.18%; Mtb cholesterol medium: 24.62%.
With O=C(O)C(F)(F)F.O=C(O)C(F)(F)F.[H][C@@]12C[C@@H](Oc3cncnc3)CN1CCN(Cc1nccn1C)C2 the screen gave Mtb glucose medium: 0.02652% and 7.122%; Mtb cholesterol medium: 4.064%.
With CN1CCCC(CCC(=O)NCCc2nnc(N)s2)C1 (centres undefined) the screen gave Mtb glucose medium: -48.42%; Mtb cholesterol medium: -3.515%.
With CC(C(=O)NCC1CCN(c2ccncc2)CC1)S(C)(=O)=O (centres undefined) the screen gave Mtb glucose medium: 11.03%; Mtb cholesterol medium: -11.54%.
With O=C(O)c1c[nH]c2cc(NS(=O)(=O)c3cccc(Cl)c3F)ccc12 the screen gave Mtb glucose medium: 4.09%; Mtb cholesterol medium: -14.68%.
With [H][C@]12CN(C(=O)C3CCC3)C[C@@]1([H])C(=O)N(c1ccccc1)C2 the screen gave Mtb glucose medium: -5.071%; Mtb cholesterol medium: 2.834%.
With O=C(O)CSc1nnc(-c2cn[nH]c2)n1-c1ccccc1Cl the screen gave Mtb glucose medium: -14.92%; Mtb cholesterol medium: -11.26%.
With Cc1cc(NC(=O)NCCc2cccs2)n(C)n1 the screen gave Mtb glucose medium: -8.493% and -10.87%; Mtb cholesterol medium: -18.95%.
With Cc1ccc([C@@H]2CN(C(=O)c3cc(C)n[nH]3)C[C@H]2NC(=O)C2CC2)cc1 the screen gave Mtb glucose medium: -21.3%; Mtb cholesterol medium: -45.51%.
With N#CC(NC(=O)CS(=O)(=O)C1CCCC1)c1ccc(F)cc1F (centres undefined) the screen gave Mtb glucose medium: -19.22%; Mtb cholesterol medium: -5.019% and 10.89%.
With COc1c(F)cc(NC(=O)NCc2nncn2C2CC2)cc1F the screen gave Mtb glucose medium: -14.25%; Mtb cholesterol medium: -4.26% and -3.129%.
With CN(C1CCN(c2ccccn2)CC1)S(=O)(=O)c1ccccc1F the screen gave Mtb glucose medium: 43.58%; Mtb cholesterol medium: 14.03%.
With Cc1noc(C)c1CNCC1CNc2ccnn2C1 (centres undefined) the screen gave Mtb glucose medium: -2.422%; Mtb cholesterol medium: -2.72%.
With CC(CCN1CCC(n2cc(CCO)nn2)CC1)c1ccccc1 (centres undefined) the screen gave Mtb glucose medium: -8.713% and 10.36%; Mtb cholesterol medium: 5.118%.
With CCc1ccc(CN2CCc3ncnc(-c4cccnc4)c3CC2)o1.O=C(O)C(F)(F)F.O=C(O)C(F)(F)F the screen gave Mtb glucose medium: 2.491%; Mtb cholesterol medium: 9.679%.
With CN(CCSc1ccccc1)C(=O)c1cn2c(n1)CNCC2 the screen gave Mtb glucose medium: -4.322%; Mtb cholesterol medium: -22.62%.
With N#Cc1cc(Cl)ccc1N1CCOC(C(N)=O)C1 (centres undefined) the screen gave Mtb glucose medium: 6.964% and -1.276%; Mtb cholesterol medium: -19.6%.